Measurements from “University of Dundee, Small-Polar-MMV Screening Library” (2021), ChEMBL document CHEMBL3988442.

Results are given as percent effect. The record does not define 0% and 100%; most values in the screen are far below 50% and negative numbers occur (in some assays of this library far below -100). This is an unselected part of the compounds tested.

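Whole-cell assay for inhibitors of Mycobacterium tuberculosis growth, labelled Cornell in the record; the read-out is not stated. The concentration is filed as 10 mM, unlikely as a test dose, so the dose is not known. The record gives no direction; compounds strong in two other growth screens of this library score well above the rest, so higher reads as stronger inhibition. Of about 53,000 compounds tested this way, about 900 (1.7%) reached 50% or more in at least one test.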

| SMILES | percent effect |
|---|---|
| `CC(C)N1CCC2(CC1)CC(=O)N(Cc1cc(F)cc(F)c1)C2` | -5.7 |
| `N#Cc1ccc(Cl)cc1NCC1CC1` | 14.43 |
| `CC(c1ccc(Cl)cc1)N1CCN(CCCS(C)(=O)=O)CC1` (stereo unspecified) | 7.734 |
| `O=C(O)C(F)(F)F.c1ccc(CCNCC2Cn3nncc3CO2)cc1` (stereo unspecified) | -34.52 |
| `O=C(O)c1cccc(CN2CCCC(Cc3ccn[nH]3)C2)c1` (stereo unspecified) | -4.054 |
| `COCC(=O)N1CCc2ncc(Cn3cncn3)n2CC1` | 12.01 |
| `CN1CCN(Cc2ccccc2CNC(=O)c2cc(Br)ccc2F)CC1` | -17.04 |
| `CC(c1ccncc1)N(CCN(C)C)C(=O)Nc1ccc(Cl)cc1` (stereo unspecified) | 17.38 |
| `Cc1ncsc1CN1Cc2cnn(C)c2C(COCC2CC2)C1.O=C(O)C(F)(F)F.O=C(O)C(F)(F)F` (stereo unspecified) | 16.3 |
| `Cc1nccc(C(=O)N2CCCC2c2c(C)nn(C)c2C)n1` (stereo unspecified) | -46.36 |
| `[H][C@@]12CN(Cc3ccccc3C)C[C@]1([H])OCC(=O)N2CC(N)=O` | -21.48 |
| `C[C@@H]1CN(C2CCCCC2)CC[C@@]1(O)C1CCOCC1` | 31.17 |
| `CC(C)CS(=O)(=O)CCNC(=O)Nc1cccc2ncccc12` | -4.527 |
| `O=C(O)C(F)(F)F.O=C(O)C(F)(F)F.[H][C@@]12CCC(=O)N(c3cnn(C)c3)[C@]1([H])CCN2Cc1cccc(C#N)c1` | 14.16 |
| `CCC(CO)(CO)NC(=O)C1CCC(=O)N(CCc2ccccc2)C1` (stereo unspecified) | 9.017 |
| `[H][C@@]12CCN(S(=O)(=O)Cc3ccc(C)cc3)[C@]1([H])CCC(=O)N2CC` | -14.55 |
| `O=C1CCC(=O)N1c1nn(Cc2ccc(F)cc2)cc1Cl` | -47.77 |
| `CCOCC1CC2(CCN(C(=O)c3cscn3)CC2)CO1` (stereo unspecified) | 7.94 |
| `CN1CC2(CCCN(Cc3nnc(-c4cccc(F)c4)o3)C2)OC1=O` (stereo unspecified) | -97.6 |
| `O=C(NCCNC1CCN(c2nccs2)CC1)c1cccs1` | 14.82 |
| `CC(C)C(=O)N1CCC(NC2CCSCC2)C1` (stereo unspecified) | -6.29 |
| `O=C(O)C(F)(F)F.c1nc2c(c(-c3ccsc3)n1)CCN(Cc1ccoc1)CC2` | 9.973 |
| `CC(C)=CCC1(CO)CCCN(Cc2nccs2)C1` (stereo unspecified) | 2.53 |
| `CCCc1n[nH]c(C2CN(C(=O)Cc3ccc(C)nc3)CCO2)n1` (stereo unspecified) | 18.61 |
| `CC(=O)N1CCN([C@@H]2CN(C(=O)c3ccccc3)C[C@H]2O)CC1` | -6.251 |
| `[H][C@]12C[C@H](C(=O)NCC3CC3)N(C)[C@@]1([H])CN(Cc1ccc(C)o1)C2` | -8.584 |
| `COCCOc1ccc(NC(=O)C2CC(=O)N(C(C)C)C2)cn1` (stereo unspecified) | 8.423 |
| `CS(=O)(=O)Cc1nc(C2CC2)nn1-c1ccccn1` | 21.04 |
| `[H][C@@]12CCN(C(=O)C3CCOCC3)[C@]1([H])CCC(=O)N2CC1CC1` | -52.26 |
| `Cc1cc(S(=O)(=O)N2CCCc3ccc(F)cc32)sc1C(=O)O` | 25.58 |
| `Cc1cccc(N2CCCC3(C2)CN(S(C)(=O)=O)CCO3)c1` (stereo unspecified) | -14.47 |
| `[H][C@@]12OCCN(c3ncccn3)[C@@]1([H])CC[C@H]2OCCN1CCOCC1` | 6.043 |
| `CCc1c(C(=O)N2CCN(c3ncccn3)CC2)cnn1C(C)(C)C` | 20.47 |
| `COc1cc(-c2cc(NC3CCCC3)nc3[nH]ccc23)nc(N)n1` | 98.19 |
| `Cc1[nH]c2ccc(C(=O)N3C[C@@H](O)[C@H](N4CCOCC4)C3)cc2c1C` | 7.491 |
| `O=C(CNC(=O)N1CCc2c([nH]c3ccc(Cl)cc23)C1)NCCCO` | 9.462 |
| `CCOc1ncccc1CN1Cc2ncccc2C1=O` | -0.5707 |
| `[H][C@@]12COC[C@@H](C(=O)NC)[C@]1([H])CN(C(=O)c1ccc(OC)cc1)C2` | 12.23 |
| `CCCC(C)(C)NC(=O)c1cnc(C)s1` | 0.5432 |
| `O=C(NCCCNC(=O)c1ccc(F)cc1F)c1cccc(O)c1` | 20.2 |
| `Cc1cc(C(=O)NCc2cccnc2N2CCc3ccccc3C2)[nH]n1` | -7.313 |
| `CN(C)CCO[C@H]1C[C@@H](O)C12CCN(c1nccc3ccccc13)CC2` | -48.56 |
| `OCCC1CN(C2CCC2)CCN1C1CCCC1` (stereo unspecified) | 0.454 |
| `CC(=O)N1CC(=O)N(c2ccccc2)CC12CCN(Cc1cccs1)C2.O=C(O)C(F)(F)F` (stereo unspecified) | 21.85 |
| `CCn1cnnc1C1CCN(C(=O)c2ccoc2C)CC1` | -26.46 |
| `COc1cc(C)nc(N2CCN(C(=O)CCc3cccs3)CC2)n1` | 13.9 |
| `Cc1ccsc1-c1nnc(C2CCN(Cc3ccc(F)cc3)CC2)o1` | 17.99 |
| `N[C@@H]1c2ccccc2C2(CCN(C(=O)c3ccc(Cl)cn3)CC2)[C@H]1O` | -46.48 |
| `O=C(O)CC(O)(CC(=O)O)C(=O)O.c1cncc(-c2nccc(CN3CCCC3)n2)c1` | 18.83 |
| `O=C(O)C(F)(F)F.[H][C@@]12CCN(c3ccc(C)nn3)[C@]1([H])CC[C@H](C(=O)NCc1ccco1)O2` | 13.56 |
| `O=C(NCc1ccco1)c1cc(N2CC[C@@H](O)C2)ccn1` | 21.83 |
| `O=C1CN(CCCNS(=O)(=O)c2cccc(C(=O)NC3CC3)c2)CCN1` | 2.55 |
| `CC(C)(C)OC(=O)N1CCCN1C(=O)c1cccc(F)c1F` | 7.511 |

3 of the entries, repeated:

[H][C@@]12CN(Cc3ccccc3C)C[C@]1([H])OCC(=O)N2CC(N)=O gave -21.48%.
[H][C@@]12OCCN(c3ncccn3)[C@@]1([H])CC[C@H]2OCCN1CCOCC1 gave 6.043%.
COCCOc1ccc(NC(=O)C2CC(=O)N(C(C)C)C2)cn1 (stereo unspecified) gave 8.423%.